Results taken from PMC10413357.
These are yes or no findings as the source states them, for the method shown. In cells and extracts the contact can be indirect. These calls come from enrichment with a bait or labelling near it, and not all partners need be listed.

By UniProt entry, the sequences of proteins in these tests, tags left out.
UniProt P09874: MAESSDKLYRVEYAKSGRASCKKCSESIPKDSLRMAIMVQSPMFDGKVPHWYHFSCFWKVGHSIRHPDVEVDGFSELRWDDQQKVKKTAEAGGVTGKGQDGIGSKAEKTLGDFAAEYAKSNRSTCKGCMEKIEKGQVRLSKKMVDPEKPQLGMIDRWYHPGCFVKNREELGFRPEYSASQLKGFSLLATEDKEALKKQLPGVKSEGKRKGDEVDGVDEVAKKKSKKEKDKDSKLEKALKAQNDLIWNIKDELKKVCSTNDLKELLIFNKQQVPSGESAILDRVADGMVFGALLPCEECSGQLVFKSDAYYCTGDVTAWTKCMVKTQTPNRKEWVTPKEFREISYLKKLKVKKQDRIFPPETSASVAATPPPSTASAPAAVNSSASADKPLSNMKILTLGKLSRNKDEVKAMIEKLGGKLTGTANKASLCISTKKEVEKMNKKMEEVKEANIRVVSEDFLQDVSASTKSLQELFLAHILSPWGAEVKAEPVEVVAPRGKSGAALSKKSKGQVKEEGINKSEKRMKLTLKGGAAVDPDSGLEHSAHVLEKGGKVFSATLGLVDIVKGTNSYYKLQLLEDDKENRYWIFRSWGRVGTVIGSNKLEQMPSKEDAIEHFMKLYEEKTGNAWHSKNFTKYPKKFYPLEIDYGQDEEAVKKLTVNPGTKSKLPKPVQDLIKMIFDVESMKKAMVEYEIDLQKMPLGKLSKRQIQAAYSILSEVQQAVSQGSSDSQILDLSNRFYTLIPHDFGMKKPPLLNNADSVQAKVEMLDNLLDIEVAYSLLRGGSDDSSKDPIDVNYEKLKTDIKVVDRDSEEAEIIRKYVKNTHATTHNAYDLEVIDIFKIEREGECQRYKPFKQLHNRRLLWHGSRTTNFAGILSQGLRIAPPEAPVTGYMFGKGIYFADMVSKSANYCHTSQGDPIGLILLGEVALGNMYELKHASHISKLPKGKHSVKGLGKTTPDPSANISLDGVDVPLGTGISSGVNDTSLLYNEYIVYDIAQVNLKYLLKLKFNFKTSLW

Target: S-protein-FLAG–Streptavidin-binding peptide (SFB)-tagged RNF168 (UniProt Q8IYW5)
Experiment: affinity purification with mass spectrometry; tandem affinity purification (Streptavidin Sepharose, biotin elution, then S-protein beads) of SFB-RNF168 from the Turbonuclease-digested chromatin fraction of transfected HEK293T cells; NETN buffer (150 mM NaCl, 0.5 mM EDTA, 20 mM Tris-HCl pH 8.0, 0.5% NP-40), 4 °C

For PARP1 (from UniProt P09874 1-1014), the binding was “binds”.
